These are yes or no findings as the source states them, for the method shown. In cells and extracts the contact can be indirect. Some results given as binding are weak or reduced against the parent protein; the word gives no strength.
Target: glucocorticoid receptor (mouse (endogenous in mpkCCD)) (UniProt P06537)
Experiment: co-IP; anti-GR antibody (sc-393232) added to 1 mg mpkCCD lysate (1% Triton X-100, 20 mM Tris, 150 mM NaCl), 16 h at 4°C, protein G Mag Sepharose beads 5 h at 4°C; immunoblot for Actn4; cells treated with vehicle or dDAVP (1 nM, 24 h); control IgG precipitate

Sequences of proteins named here, by UniProt entry; tags and fusion partners are left off.
UniProt P06537: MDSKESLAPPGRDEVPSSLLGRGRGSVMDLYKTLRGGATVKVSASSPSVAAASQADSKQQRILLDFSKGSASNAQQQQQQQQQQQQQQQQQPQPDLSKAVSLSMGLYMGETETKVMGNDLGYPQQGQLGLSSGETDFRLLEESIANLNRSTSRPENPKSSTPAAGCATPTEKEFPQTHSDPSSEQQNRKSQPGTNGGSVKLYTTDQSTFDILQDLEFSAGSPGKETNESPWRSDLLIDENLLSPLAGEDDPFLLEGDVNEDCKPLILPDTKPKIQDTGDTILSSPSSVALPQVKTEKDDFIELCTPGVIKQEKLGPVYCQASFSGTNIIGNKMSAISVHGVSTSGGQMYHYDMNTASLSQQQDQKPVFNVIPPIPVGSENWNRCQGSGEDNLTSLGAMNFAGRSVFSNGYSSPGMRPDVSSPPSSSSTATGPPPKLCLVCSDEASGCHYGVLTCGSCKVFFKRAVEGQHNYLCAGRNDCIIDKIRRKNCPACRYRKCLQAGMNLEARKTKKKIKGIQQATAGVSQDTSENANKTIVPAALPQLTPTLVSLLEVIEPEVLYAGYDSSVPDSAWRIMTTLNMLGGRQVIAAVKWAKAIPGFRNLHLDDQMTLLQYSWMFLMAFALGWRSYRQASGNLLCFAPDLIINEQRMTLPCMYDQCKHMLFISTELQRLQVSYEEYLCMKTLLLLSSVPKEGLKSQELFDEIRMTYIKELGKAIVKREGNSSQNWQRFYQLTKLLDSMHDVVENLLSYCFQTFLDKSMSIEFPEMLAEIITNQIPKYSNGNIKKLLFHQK
UniProt P57780: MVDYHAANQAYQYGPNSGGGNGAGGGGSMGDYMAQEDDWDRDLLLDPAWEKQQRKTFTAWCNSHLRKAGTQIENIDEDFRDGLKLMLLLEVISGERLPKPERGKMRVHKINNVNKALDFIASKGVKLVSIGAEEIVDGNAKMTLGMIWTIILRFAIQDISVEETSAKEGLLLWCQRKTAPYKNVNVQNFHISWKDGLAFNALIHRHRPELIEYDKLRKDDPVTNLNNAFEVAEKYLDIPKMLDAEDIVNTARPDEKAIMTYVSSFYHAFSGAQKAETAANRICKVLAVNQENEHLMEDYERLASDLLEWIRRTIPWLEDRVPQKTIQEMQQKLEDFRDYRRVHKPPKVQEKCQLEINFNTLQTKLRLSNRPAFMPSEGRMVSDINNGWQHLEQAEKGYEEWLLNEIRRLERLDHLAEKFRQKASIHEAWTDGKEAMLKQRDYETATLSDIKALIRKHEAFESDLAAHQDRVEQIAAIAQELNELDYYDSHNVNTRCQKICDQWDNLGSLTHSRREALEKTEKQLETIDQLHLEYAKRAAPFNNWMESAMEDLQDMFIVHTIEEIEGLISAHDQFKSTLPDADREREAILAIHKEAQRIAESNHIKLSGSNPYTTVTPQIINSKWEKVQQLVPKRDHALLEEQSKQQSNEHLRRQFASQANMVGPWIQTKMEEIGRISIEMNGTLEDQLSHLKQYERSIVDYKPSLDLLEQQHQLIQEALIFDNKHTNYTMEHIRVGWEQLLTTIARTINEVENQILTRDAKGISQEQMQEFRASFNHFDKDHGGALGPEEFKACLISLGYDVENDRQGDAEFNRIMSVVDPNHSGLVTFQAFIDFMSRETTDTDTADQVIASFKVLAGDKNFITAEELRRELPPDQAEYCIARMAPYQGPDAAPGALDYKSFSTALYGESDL

binding: binds
Substance: α-actinin 4 (from UniProt P57780 1-912)

From paper PMC8674656
